PubChem BioAssay AID652272, Drosophila RNAi Screening Center, 2013
Purpose: 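Genes whose knock-down decreases or increases Hedgehog reporter output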 (primary screen). Cell system: Drosophila clone 8 (Cl8) cells. Reagent: long dsRNA against Drosophila genes. Measurement: 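Firefly light from a Hedgehog-responsive ptc promoter reporter and Renilla reference light, both read on a plate reader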. Scale: firefly Hh reporter signal: higher = more ptc reporter light; Renilla reference signal: higher = more Renilla control light. Call rule: 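Called a hit if the two-replicate mean z-score lies below -2 or above +3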. Calls: active = hit: reporter lowered or raised; inactive = not a hit.
The screen tested about 21,000 reagents; this is an unselected part of those with a known target gene and a result. Over the whole deposit, 503 (2.4%) are marked active. 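Raw plate light values, not normalised; calls rest on replicate z-scores that were not deposited; hits include reporter decreases as well as increases.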 The numbers tell different reagents against one gene apart. A plus sign joins genes that one reagent is predicted to hit. Not given: the amount of reagent, the time to read-out.

With CG2574, what does the deposit list?
firefly Hh reporter signal, replicate 1: 1.53e5; firefly Hh reporter signal, replicate 2: 3.89e5; Renilla reference signal, replicate 1: 5828; Renilla reference signal, replicate 2: 15177; Call: inactive

What did the screen give for Mabi?
firefly Hh reporter signal, replicate 1: 2.23e5; firefly Hh reporter signal, replicate 2: 89289; Renilla reference signal, replicate 1: 5257; Renilla reference signal, replicate 2: 7026; Call: inactive

For CaMKII, what does the deposit list?
firefly Hh reporter signal, replicate 1: 1.06e5; firefly Hh reporter signal, replicate 2: 98360; Renilla reference signal, replicate 1: 2489; Renilla reference signal, replicate 2: 2679; Call: inactive

With jing #1, how do the results read?
firefly Hh reporter signal, replicate 1: 96708; firefly Hh reporter signal, replicate 2: 75419; Renilla reference signal, replicate 1: 2656; Renilla reference signal, replicate 2: 7349; Call: inactive

How did the screen score jing #2?
firefly Hh reporter signal, replicate 1: 1.29e5; firefly Hh reporter signal, replicate 2: 2.65e5; Renilla reference signal, replicate 1: 3141; Renilla reference signal, replicate 2: 11664; Call: inactive

For jing #3, what was measured?
firefly Hh reporter signal, replicate 1: 1.21e5; firefly Hh reporter signal, replicate 2: 57795; Renilla reference signal, replicate 1: 4274; Renilla reference signal, replicate 2: 1862; Call: inactive

What did the screen give for CG13130 (retired record)?
firefly Hh reporter signal, replicate 1: 72810; firefly Hh reporter signal, replicate 2: 28508; Renilla reference signal, replicate 1: 3493; Renilla reference signal, replicate 2: 5424; Call: active

What did the screen give for veg (retired record)?
firefly Hh reporter signal, replicate 1: 75196; firefly Hh reporter signal, replicate 2: 60563; Renilla reference signal, replicate 1: 1929; Renilla reference signal, replicate 2: 3856; Call: inactive

With blow, how do the results read?
firefly Hh reporter signal, replicate 1: 80019; firefly Hh reporter signal, replicate 2: 60924; Renilla reference signal, replicate 1: 2572; Renilla reference signal, replicate 2: 2149; Call: inactive

Which result is listed for Shab #1?
firefly Hh reporter signal, replicate 1: 1.19e5; firefly Hh reporter signal, replicate 2: 1.88e5; Renilla reference signal, replicate 1: 3411; Renilla reference signal, replicate 2: 8219; Call: inactive

For Shab #2, what was measured?
firefly Hh reporter signal, replicate 1: 61251; firefly Hh reporter signal, replicate 2: 26176; Renilla reference signal, replicate 1: 2540; Renilla reference signal, replicate 2: 2264; Call: inactive

With Shab #3, what does the deposit list?
firefly Hh reporter signal, replicate 1: 1.27e5; firefly Hh reporter signal, replicate 2: 69408; Renilla reference signal, replicate 1: 5056; Renilla reference signal, replicate 2: 1163; Call: inactive

For Impbeta11 + asRNA:CR43429, what was measured?
firefly Hh reporter signal, replicate 1: 75091; firefly Hh reporter signal, replicate 2: 32348; Renilla reference signal, replicate 1: 2345; Renilla reference signal, replicate 2: 1504; Call: inactive

What did the screen give for CG2924?
firefly Hh reporter signal, replicate 1: 1.19e5; firefly Hh reporter signal, replicate 2: 1.26e5; Renilla reference signal, replicate 1: 3037; Renilla reference signal, replicate 2: 3456; Call: inactive

Which result is listed for CG5543?
firefly Hh reporter signal, replicate 1: 77976; firefly Hh reporter signal, replicate 2: 67852; Renilla reference signal, replicate 1: 3461; Renilla reference signal, replicate 2: 3269; Call: inactive

For CG32022, what was measured?
firefly Hh reporter signal, replicate 1: 35201; firefly Hh reporter signal, replicate 2: 61285; Renilla reference signal, replicate 1: 4829; Renilla reference signal, replicate 2: 4369; Call: inactive

For CG6441, what does the deposit list?
firefly Hh reporter signal, replicate 1: 1.10e5; firefly Hh reporter signal, replicate 2: 48002; Renilla reference signal, replicate 1: 2841; Renilla reference signal, replicate 2: 4829; Call: inactive

How did the screen score trpl #1?
firefly Hh reporter signal, replicate 1: 1.13e5; firefly Hh reporter signal, replicate 2: 65717; Renilla reference signal, replicate 1: 2618; Renilla reference signal, replicate 2: 6038; Call: inactive

With trpl #2, what was measured?
firefly Hh reporter signal, replicate 1: 1.53e5; firefly Hh reporter signal, replicate 2: 70120; Renilla reference signal, replicate 1: 3537; Renilla reference signal, replicate 2: 2426; Call: inactive

How did the screen score CG42834?
firefly Hh reporter signal, replicate 1: 2554; firefly Hh reporter signal, replicate 2: 1.96e5; Renilla reference signal, replicate 1: 595; Renilla reference signal, replicate 2: 4411; Call: inactive

Which result is listed for Scgbeta?
firefly Hh reporter signal, replicate 1: 89623; firefly Hh reporter signal, replicate 2: 2.15e5; Renilla reference signal, replicate 1: 3417; Renilla reference signal, replicate 2: 10688; Call: inactive

3 entries from above, showing only “firefly Hh reporter signal, replicate 1”.
CG5543 = 77976
CG32022 = 35201
CG6441 = 1.10e5
